# Assay results published in the supplement of paper PMC8728848.
# The other results are listed elsewhere or left out.
# B1: PX14343I-pdi-501-30-501 (Parabacteroides distasonis) (protein)
# chain: SDQYSTETFWKTKEHASAGIMGCYNALKLWRSLHTMEFDMLTANAMPYNEANGTQAIGKGEHLSTTALIGSLWKNCYVGIGRTNTFIANVGGVDMDESEKAKMVGEAKFLRAFYYLSLVDKFGGVPLIIDAPNADEQAELPRNSKEEVVNQIVKDLEEAAAVLPDTYASSDLGRATKGAALALKARTLLYNSRWAEAAQAAKQVMESGVYQLFNDYRHFFSEDNKYNCEVIFDIEAKLPEYPTDYDQNIWRLNRPAPLKELVDTYLCVDGKTIEESPLYDPTRPYENRDPRLLKSIVCIGYPYLGKTITKEDVATTGFGVKKYTSYEDDVTIPLVERSAFNFILIRYAEVLLTYAEAQNEASGPDQSVYDAINQLRRRPDINMPEVPKGLTKDQMREVIRRERRIELTFEGLYYSDILRWKTAEKENNGMMHNYEGIEVVKRSFNPKRDYLWPIPYNQTVLNPNLEQNPNWD
# Columns and labels:
# Assay in all cases: glycan array binding signal (z-score within array); higher = stronger binding
# Settings in all cases: glycan notation: IUPAC condensed, linker removed
# [1] = target: Gal(a1-3)[Gal(a1-4)]Gal(b1-4)GlcNAc
# Summary of the method: (§1)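 Arrays were curated from the Consortium for Functional Glycomics database, 3228 in total, and kept only where the protein sequence was available. Binding is expressed as a within-array Z-score. This score was averaged across arrays of the same protein sequence at different concentrations or buffers and across linkers, and negative values can be read as non-binding.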
# [2] = target: Gal(a1-4)Gal(b1-3)GlcNAc(b1-2)Man(a1-3)[Gal(a1-4)Gal(b1-3)GlcNAc(b1-2)Man(a1-6)]Man(b1-4)GlcNAc(b1-4)GlcNAc
# Summary of the method: as §1
# Gal(a1-4)Gal(b1-4)Glc = target: Gal(a1-4)Gal(b1-4)Glc
# Summary of the method: as §1
# Gal(a1-4)Gal(b1-4)GlcNAc = target: Gal(a1-4)Gal(b1-4)GlcNAc
# Summary of the method: as §1
# [3] = target: Gal(a1-4)Gal(b1-4)GlcNAc(b1-2)Man(a1-3)[Gal(a1-4)Gal(b1-4)GlcNAc(b1-2)Man(a1-6)]Man(b1-4)GlcNAc(b1-4)GlcNAc
# Summary of the method: as §1
# [4] = target: Gal(a1-4)Gal(b1-4)GlcNAc(b1-3)Gal(b1-4)Glc
# Summary of the method: as §1
# Gal(a1-4)GlcNAc = target: Gal(a1-4)GlcNAc
# Summary of the method: as §1
# Gal(a1-6)Glc = target: Gal(a1-6)Glc
# Summary of the method: as §1
# Gal(b1-2)Gal = target: Gal(b1-2)Gal
# Summary of the method: as §1
# Gal(b1-3)Gal = target: Gal(b1-3)Gal
# Summary of the method: as §1
# Gal(b1-3)Gal(b1-4)GlcNAc = target: Gal(b1-3)Gal(b1-4)GlcNAc
# Summary of the method: as §1
# Gal(b1-3)GalNAc = target: Gal(b1-3)GalNAc
# Summary of the method: as §1
# [5] = target: Gal(b1-3)GalNAc(a1-3)[Fuc(a1-2)]Gal(b1-4)Glc
# Summary of the method: as §1
# [6] = target: Gal(b1-3)GalNAc(a1-3)[Fuc(a1-2)]Gal(b1-4)GlcNAc
# Summary of the method: as §1
# Gal(b1-3)GalNAc(b1-3)Gal = target: Gal(b1-3)GalNAc(b1-3)Gal
# Summary of the method: as §1
# [7] = target: Gal(b1-3)GalNAc(b1-3)Gal(a1-4)Gal(b1-4)Glc
# Summary of the method: as §1
# [8] = target: Gal(b1-3)GalNAc(b1-4)Gal(b1-4)Glc
# Summary of the method: as §1
# [9] = target: Gal(b1-3)GalNAc(b1-4)[Neu5Ac(a2-3)]Gal(b1-4)Glc
# Summary of the method: as §1
# Gal(b1-3)GlcNAc = target: Gal(b1-3)GlcNAc
# Summary of the method: as §1
# [10] = target: Gal(b1-3)GlcNAc(a1-3)Gal(b1-4)GlcNAc
# Summary of the method: as §1
# [11] = target: Gal(b1-3)GlcNAc(a1-6)Gal(b1-4)GlcNAc
# Summary of the method: as §1
# Gal(b1-3)GlcNAc(b1-2)Man = target: Gal(b1-3)GlcNAc(b1-2)Man
# Summary of the method: as §1
# [12] = target: Gal(b1-3)GlcNAc(b1-2)Man(a1-3)[Gal(b1-3)GlcNAc(b1-2)Man(a1-6)]Man(b1-4)GlcNAc(b1-4)GlcNAc
# Summary of the method: as §1
# [13] = target: Gal(b1-3)GlcNAc(b1-2)Man(a1-3)[Gal(b1-3)GlcNAc(b1-2)Man(a1-6)]Man(b1-4)GlcNAc(b1-4)[Fuc(a1-6)]GlcNAc
# Summary of the method: as §1
# [14] = target: Gal(b1-3)GlcNAc(b1-2)Man(a1-3)[GlcNAc(b1-4)][Gal(b1-3)GlcNAc(b1-2)Man(a1-6)]Man(b1-4)GlcNAc(b1-4)GlcNAc
# Summary of the method: as §1
# [15] = target: Gal(b1-3)GlcNAc(b1-2)[Gal(b1-3)GlcNAc(b1-6)]Man(a1-6)[Gal(b1-3)GlcNAc(b1-2)Man(a1-3)]Man(b1-4)GlcNAc(b1-4)GlcNAc
# Summary of the method: as §1
# [16] = target: Gal(b1-3)GlcNAc(b1-3)Gal(b1-3)GlcNAc
# Summary of the method: as §1
# [17] = target: Gal(b1-3)GlcNAc(b1-3)Gal(b1-4)Glc
# Summary of the method: as §1
# [18] = target: Gal(b1-3)GlcNAc(b1-3)Gal(b1-4)GlcNAc
# Summary of the method: as §1
# [19] = target: Gal(b1-3)GlcNAc(b1-3)Gal(b1-4)GlcNAc(b1-2)Man(a1-3)[Gal(b1-3)GlcNAc(b1-3)Gal(b1-4)GlcNAc(b1-2)Man(a1-6)]Man(b1-4)GlcNAc(b1-4)GlcNAc
# Summary of the method: as §1
# [20] = target: Gal(b1-3)GlcNAc(b1-3)Gal(b1-4)GlcNAc(b1-2)[Gal(b1-3)GlcNAc(b1-3)Gal(b1-4)GlcNAc(b1-6)]Man(a1-6)[Gal(b1-3)GlcNAc(b1-3)Gal(b1-4)GlcNAc(b1-2)Man(a1-3)]Man(b1-4)GlcNAc(b1-4)[Fuc(a1-6)]GlcNAc
# Summary of the method: as §1
# [21] = target: Gal(b1-3)GlcNAc(b1-3)Gal(b1-4)GlcNAc(b1-3)Gal(b1-4)GlcNAc(b1-2)[Gal(b1-3)GlcNAc(b1-3)Gal(b1-4)GlcNAc(b1-3)Gal(b1-4)GlcNAc(b1-6)]Man(a1-6)[Gal(b1-3)GlcNAc(b1-3)Gal(b1-4)GlcNAc(b1-3)Gal(b1-4)GlcNAc(b1-2)Man(a1-3)]Man(b1-4)GlcNAc(b1-4)[Fuc(a1-6)]GlcNAc
# Summary of the method: as §1
# [22] = target: Gal(b1-3)GlcNAc(b1-3)Gal(b1-4)GlcNAc(b1-6)[Gal(b1-3)GlcNAc(b1-3)]Gal(b1-4)Glc
# Summary of the method: as §1
# [23] = target: Gal(b1-3)GlcNAc(b1-3)Gal(b1-4)[Fuc(a1-3)]GlcNAc
# Summary of the method: as §1
# [24] = target: Gal(b1-3)GlcNAc(b1-3)Gal(b1-4)[Fuc(a1-3)]GlcNAc(b1-6)[Gal(b1-3)GlcNAc(b1-3)]Gal(b1-4)Glc
# Summary of the method: as §1
# [25] = target: Gal(b1-3)GlcNAc(b1-3)GalNAc
# Summary of the method: as §1
# [26] = target: Gal(b1-3)GlcNAc(b1-6)Gal(b1-4)GlcNAc
# Summary of the method: as §1
# [27] = target: Gal(b1-3)GlcNAc(b1-6)GalNAc
# Summary of the method: as §1
binder,measurement,setting,value
B1,glycan array binding signal (z-score),[1],2.67
same,glycan array binding signal (z-score),[2],-0.39
same,glycan array binding signal (z-score),Gal(a1-4)Gal(b1-4)Glc,0.986
same,glycan array binding signal (z-score),Gal(a1-4)Gal(b1-4)GlcNAc,0.411
same,glycan array binding signal (z-score),[3],0.022
same,glycan array binding signal (z-score),[4],-0.408
same,glycan array binding signal (z-score),Gal(a1-4)GlcNAc,-0.858
same,glycan array binding signal (z-score),Gal(a1-6)Glc,0.107
same,glycan array binding signal (z-score),Gal(b1-2)Gal,-0.923
same,glycan array binding signal (z-score),Gal(b1-3)Gal,0.268
same,glycan array binding signal (z-score),Gal(b1-3)Gal(b1-4)GlcNAc,-0.375
same,glycan array binding signal (z-score),Gal(b1-3)GalNAc,0.4
same,glycan array binding signal (z-score),[5],-0.601
same,glycan array binding signal (z-score),[6],0.822
same,glycan array binding signal (z-score),Gal(b1-3)GalNAc(b1-3)Gal,0.066
same,glycan array binding signal (z-score),[7],-0.858
same,glycan array binding signal (z-score),[8],-0.713
same,glycan array binding signal (z-score),[9],0.341
same,glycan array binding signal (z-score),Gal(b1-3)GlcNAc,-0.376
same,glycan array binding signal (z-score),[10],-1.27
same,glycan array binding signal (z-score),[11],-0.41
same,glycan array binding signal (z-score),Gal(b1-3)GlcNAc(b1-2)Man,1.05
same,glycan array binding signal (z-score),[12],-0.657
same,glycan array binding signal (z-score),[13],0.589
same,glycan array binding signal (z-score),[14],0.623
same,glycan array binding signal (z-score),[15],1.55
same,glycan array binding signal (z-score),[16],-0.385
same,glycan array binding signal (z-score),[17],0.23
same,glycan array binding signal (z-score),[18],-1.03
same,glycan array binding signal (z-score),[19],0.741
same,glycan array binding signal (z-score),[20],1.1
same,glycan array binding signal (z-score),[21],1.14
same,glycan array binding signal (z-score),[22],0.989
same,glycan array binding signal (z-score),[23],-0.011
same,glycan array binding signal (z-score),[24],0.545
same,glycan array binding signal (z-score),[25],0.367
same,glycan array binding signal (z-score),[26],-0.114
same,glycan array binding signal (z-score),[27],0.189

# Random excerpt: three entries already listed, in no set order.
binder,measurement,setting,value
B1,glycan array binding signal (z-score),[20],1.1
same,glycan array binding signal (z-score),[17],0.23
same,glycan array binding signal (z-score),[23],-0.011
